# Data taken from patent US20030100997A1, “Matrix assays in genomically indexed cells” (priority 2001, published 2003).
# Where “and” joins values, the source holds several entries; their conditions need not be identical. Identical values can stand only once. For at least one compound, name, drawing or mass did not settle the structure. No end group written: not given here.
# Experiments:
# Format in all cases: cell-based
# Settings in all cases: bradykinin alone (buffer), 1.0 uM
# SaOS-2 = assay: calcium mobilization (FLIPR, Fluo-3) in SaOS-2
# Protocol: (§1) The above panel of 10 cell lines was plated in 96-well black, clear-bottomed tissue culture-treated plates (Molecular Devices, Sunnyvale, Calif. with the number of cells per well indicated in Table 1. Cells were maintained overnight at 37° C., 5%CO2 in a humidified incubator. Media was removed and the cells were then incubated in Hanks balanced salt solution (Invitrogen, Carlsbad Calif.)/10 mM HEPES pH 7.4 containing 0.04% Pluronic Acid (Molecular Probes, Eugene Oreg.) and 4 uM Fluor-3AM (Molecular Probes, Eugene Oreg.) for one hour at 37° C.
# (§2) Antagonists were added to the indicated concentration and the cells incubated at room temperature for 20 minutes. After 10 seconds of baseline read collection, agonists were added on a FLIPR instrument (Molecular Devices, Sunnyvale, Calif.) and data were collected for a total of 3.5 minutes. The fluorescence emission was normalized to initial intensity and the sum of the signal over the entire time period was exported and used for determining percent of control responses using the following formula: Percent of Control=(Sample-unstimulated cells)/(ionomycin treated cells-unstimulated cells). […] Calcium mobilization was measured as described above. […]
# PC-3 = assay: calcium mobilization (FLIPR, Fluo-3) in PC-3
# Protocol: as §1, §2
# HBL-100 = assay: calcium mobilization (FLIPR, Fluo-3) in HBL-100
# Protocol: as §1, §2
# SK-Hep-1 = assay: calcium mobilization (FLIPR, Fluo-3) in SK-Hep-1
# Protocol: as §1
# Antagonists were added to the indicated concentration and the cells incubated at room temperature for 20 minutes. After 10 seconds of baseline read collection, agonists were added on a FLIPR instrument (Molecular Devices, Sunnyvale, Calif.) and data were collected for a total of 3.5 minutes. The fluorescence emission was normalized to initial intensity and the sum of the signal over the entire time period was exported and used for determining percent of control responses using the following formula: Percent of Control=(Sample-unstimulated cells)/(ionomycin treated cells-unstimulated cells). […] Calcium mobilization was measured as described above.
sequence,measurement,setting,value
"RPPGFSPFR [BK, bradykinin]","calcium mobilization, Percent of Control",SaOS-2,22% of Control and 29% of Control
same,"calcium mobilization, Percent of Control",PC-3,0% of Control
same,"calcium mobilization, Percent of Control",HBL-100,9% of Control and 12% of Control
same,"calcium mobilization, Percent of Control",SK-Hep-1,0% of Control
